Some entries repeat one wording, which the source may state once for all of them.

This series can be described thus: Taste evaluation with a taste sensor (artificial lipid membrane electrode). The settings on record: 200 ppm in distilled water; compared with green tea extract (TVG-1), the unglycosylated product.
Turning to `O=C(O[C@@H]1Cc2c(O)cc(O[C@H]3O[C@H](CO)[C@@H](O)[C@H](O)[C@H]3O)cc2O[C@@H]1c1cc(O)c(O)c(O)c1)c1cc(O)c(O)c(O)c1` [7-O-α-D-glucopyranosyl-(−)-epigallocatechin-3-O-gallate], the astringent taste entry was “significantly lower level of astringent taste”.
As to `O=C(O[C@@H]1Cc2c(O[C@H]3O[C@H](CO)[C@@H](O[C@H]4O[C@H](CO)[C@@H](O)[C@H](O)[C@H]4O)[C@H](O)[C@H]3O)cc(O)cc2O[C@@H]1c1cc(O)c(O)c(O)c1)c1cc(O)c(O)c(O)c1` [5GG-1, 5-O-(4-O-α-D-glucopyranosyl-α-D-glucopyranosyl)-(−)-epigallocatechin-3-O-gallate], the astringent taste entry is listed as “significantly lower level of astringent taste”.
The same measure for `O=C(O[C@@H]1Cc2c(O[C@H]3O[C@H](CO)[C@@H](O)[C@H](O)[C@H]3O)cc(O)cc2O[C@@H]1c1cc(O)c(O)c(O)c1)c1cc(O)c(O)c(O)c1` [5-O-α-D-glucopyranosyl-(−)-epigallocatechin-3-O-gallate]: “significantly lower level of astringent taste”; for `O=C(O[C@@H]1Cc2c(O)cc(O[C@H]3O[C@H](CO)[C@@H](O[C@H]4O[C@H](CO)[C@@H](O)[C@H](O)[C@H]4O)[C@H](O)[C@H]3O)cc2O[C@@H]1c1cc(O)c(O)c(O)c1)c1cc(O)c(O)c(O)c1` [7-O-(4-O-α-D-glucopyranosyl-α-D-glucopyranosyl)-(−)-epigallocatechin-3-O-gallate]: “significantly lower level of astringent taste”.

The values above are taken from patent US9364492B2, “Method for glycosylation of flavonoid compounds” (SUNTORY HOLDINGS LIMITED, priority 2007, dated 2016).
